Here are results for five substances from article PMC11707877.

The chains behind the UniProt entries cited, without tags or fusion partners. Residues count along the entry.
UniProt Q9LND1, residues 61-244: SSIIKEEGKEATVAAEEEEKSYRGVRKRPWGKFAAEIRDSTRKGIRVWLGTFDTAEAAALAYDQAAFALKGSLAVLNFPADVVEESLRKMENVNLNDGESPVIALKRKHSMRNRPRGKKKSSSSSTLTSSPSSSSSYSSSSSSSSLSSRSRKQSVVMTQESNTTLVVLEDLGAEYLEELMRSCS
UniProt O22259: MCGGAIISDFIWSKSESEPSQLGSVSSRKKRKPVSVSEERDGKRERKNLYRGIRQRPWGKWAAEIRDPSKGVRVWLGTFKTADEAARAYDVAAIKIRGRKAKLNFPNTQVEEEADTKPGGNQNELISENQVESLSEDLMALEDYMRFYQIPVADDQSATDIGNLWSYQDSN
UniProt Q9LUM4: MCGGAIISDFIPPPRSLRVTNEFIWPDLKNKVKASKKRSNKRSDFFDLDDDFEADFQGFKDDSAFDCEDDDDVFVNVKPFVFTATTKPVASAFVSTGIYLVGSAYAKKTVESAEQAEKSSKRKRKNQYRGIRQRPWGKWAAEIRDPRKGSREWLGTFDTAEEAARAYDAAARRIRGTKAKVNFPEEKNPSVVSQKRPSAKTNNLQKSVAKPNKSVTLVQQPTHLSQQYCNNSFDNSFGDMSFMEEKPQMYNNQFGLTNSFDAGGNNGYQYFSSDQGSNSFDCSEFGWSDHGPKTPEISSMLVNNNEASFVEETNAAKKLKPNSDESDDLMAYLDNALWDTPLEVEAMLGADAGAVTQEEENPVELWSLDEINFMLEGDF
UniProt Q9SSA8: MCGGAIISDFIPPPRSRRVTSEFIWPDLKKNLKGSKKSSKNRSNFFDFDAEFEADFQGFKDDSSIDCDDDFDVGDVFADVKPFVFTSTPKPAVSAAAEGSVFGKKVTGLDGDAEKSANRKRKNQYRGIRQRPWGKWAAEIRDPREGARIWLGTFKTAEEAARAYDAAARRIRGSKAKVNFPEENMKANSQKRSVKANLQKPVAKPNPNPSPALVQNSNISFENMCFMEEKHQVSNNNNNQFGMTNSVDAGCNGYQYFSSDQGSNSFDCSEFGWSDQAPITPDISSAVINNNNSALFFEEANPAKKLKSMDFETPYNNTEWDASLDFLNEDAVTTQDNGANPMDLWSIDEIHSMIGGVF
UniProt P42736: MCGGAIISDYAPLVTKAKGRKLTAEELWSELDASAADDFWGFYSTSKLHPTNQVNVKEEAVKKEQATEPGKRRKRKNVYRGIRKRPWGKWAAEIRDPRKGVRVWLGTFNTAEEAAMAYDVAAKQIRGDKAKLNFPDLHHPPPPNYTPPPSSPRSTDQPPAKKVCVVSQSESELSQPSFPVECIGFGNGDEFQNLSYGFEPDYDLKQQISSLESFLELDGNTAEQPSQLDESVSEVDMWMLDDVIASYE
UniProt Q8H0T5: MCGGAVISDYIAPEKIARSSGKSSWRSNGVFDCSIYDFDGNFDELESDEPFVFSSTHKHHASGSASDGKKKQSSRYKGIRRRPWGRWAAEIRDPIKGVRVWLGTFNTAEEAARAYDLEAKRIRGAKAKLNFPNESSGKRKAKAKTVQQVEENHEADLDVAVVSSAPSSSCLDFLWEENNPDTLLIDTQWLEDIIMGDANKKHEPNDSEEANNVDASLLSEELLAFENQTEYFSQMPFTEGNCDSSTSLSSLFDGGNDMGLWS

These are yes or no findings as the source states them, for the method shown. In cells and extracts the contact can be indirect. Some entries that bind do so weakly or less than the wild type.

In the assay the target is ORA59 (truncated coding sequence) fused to the N-terminal part of the firefly LUC (Arabidopsis thaliana) (UniProt Q9LND1). Kind of assay: split reporter; split-LUC complementation in Arabidopsis protoplasts; ORA59 on the N-terminal part of the firefly LUC, ERFVIIs on the C-terminal part; firefly LUC activity normalized to total protein.
In the case of “HYPOXIA RESPONSIVE ERF2 (HRE2), full-length, fused to the C-terminal part of the firefly LUC (from UniProt O22259 1-171)”, the binding entry is listed as “no binding”.

Regarding “RAP2.2, full-length, fused to the C-terminal part of the firefly LUC (from UniProt Q9LUM4 1-379)”, the binding entry was “binds”. Turning to “RAP2.12, full-length, fused to the C-terminal part of the firefly LUC (from UniProt Q9SSA8 1-358)”, the binding result is on record as “binds”. For “RELATED TO AP2.3 (RAP2.3), full-length, fused to the C-terminal part of the firefly LUC (from UniProt P42736 1-248)”, the binding entry was “binds”. For “hypoxia-responsive ERF 1 (HRE1), full-length, fused to the C-terminal part of the firefly LUC (from UniProt Q8H0T5 1-262)”, the binding entry is on record as “binds”.
